Literature values in patent publication US20260275282A1, “CELLS BEING HIGHLY ENRICHED IN SASP FACTORS, AND COMPOSITION COMPRISING SAID CELLS” (EVOMEDIS GMBH, priority 2022, published 2026).
At least one structure is not confirmed: it was looked up by name or label, or the drawing left a doubt. Bridge positions count the residues as written; N and C are the ends. Square brackets hold non-standard residues; d marks the D form. Peptide text beside a SMILES is read from it. * marks the point of attachment. NMe2Val = CC(C)[C@@H](C(=O)*)N(C)C; NMeI = CC[C@H](C)[C@H](NC)C(=O)O; NMeT = CN[C@H](C(=O)O)[C@@H](C)O; NMeL = CN[C@@H](CC(C)C)C(=O)O; Hiv = CC(C)[C@H](O)C(=O)O; NMeS = CN[C@@H](CO)C(=O)O; NMeA = CN[C@@H](C)C(=O)O

Tested on: protein secretion (SASP factor secretion)
Conditions: concentration range that results in significant reduction, preferably inhibition, of SASP factor secretion

| Structure (SMILES) | Concentration |
| --- | --- |
| CC(=C\C=C\C(C)=C\[C@H](O)[C@@H](O)C[C@H](C)O)/C=C(C)/C=C/C(=O)O[C@H]1CCCC(=O)O[C@@H]([C@@H](C)C/C(C)=C/[C@@H](C)[C@H](O)C[C@@H](C)O)C/C=C(\C)C[C@@H]1C [Mycolactone] | 0.02/0.2 μM-2.0/20 μM |
| CC[C@H](C)[C@H]1C(=O)N[C@@H](C)C(=O)N(C)[C@@H](CC(C)C)C(=O)N[C@@H](Cc2ccc(OC)cc2)C(=O)N(C)[C@@H](C)C(=O)O[C@H](C)[C@H](N(C)C(=O)[C@H](CC(C)C)N(C)C(=O)[C@H](COC)N(C)C(=O)[C@@H](OC(=O)[C@H](C(C)C)N(C)C)C(C)C)C(=O)N(C)[C@@H](COC)C(=O)N1C [Coibamide A] (NMe2Val-[Hiv][NMeS](Me)[NMeL][NMeT][NMeS](Me)[NMeI]A[NMeL]Y(Me)[NMeA]; ester 4-C) | 0.1/1 μM-10.0/100 μM |
| C[C@H]1CCC/C=C/[C@@H]2C[C@H](O)C[C@H]2[C@H](O)/C=C/C(=O)O1 [Brefeldin A] | 0.1/1 μM-10.0/100 μM |
